These are yes or no findings as the source states them, for the method shown. For part of these data: Binding seen in cells or lysates may run through a third protein. Some binding calls cover weakened binding; strength is not graded here. For part of these data: Tags and fused reporters may be left off the sequences shown. Each block holds one molecule with its values, some of them ahead of it.
How the values were obtained:
[1] = biological target: MxEncA^FLAG, encapsulin shell protein A of M. xanthus with C-terminal FLAG tag (M. xanthus) (UniProt Q1D6H4); test: cryo-EM structure
[2] = biological target: MxEncA^FLAG, encapsulin shell protein A of M. xanthus with C-terminal FLAG tag (M. xanthus) (UniProt Q1D6H4); test: native gel or EMSA
[3] = biological target: MxEncA^FLAG, encapsulin shell protein A of M. xanthus with C-terminal FLAG tag (M. xanthus) (UniProt Q1D6H4); test: native gel or EMSA; remark: listed apart in the source
[4] = biological target: MxEncA^FLAG, encapsulin shell protein A of M. xanthus with C-terminal FLAG tag (M. xanthus) (UniProt Q1D6H4); test: co-IP

Sequences of proteins named here, by UniProt entry; tags and fusion partners are left off.
UniProt Q1D6H4: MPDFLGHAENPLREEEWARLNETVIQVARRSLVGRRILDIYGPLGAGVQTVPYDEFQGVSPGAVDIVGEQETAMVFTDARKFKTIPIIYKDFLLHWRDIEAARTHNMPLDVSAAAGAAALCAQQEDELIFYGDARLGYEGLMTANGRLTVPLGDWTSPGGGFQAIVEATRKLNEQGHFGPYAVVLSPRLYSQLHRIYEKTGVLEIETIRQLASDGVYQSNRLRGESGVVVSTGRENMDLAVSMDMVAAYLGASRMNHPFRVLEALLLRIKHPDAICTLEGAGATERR

binding [1]: binds
binding [2]: binds
binding [3]: binds
Molecule: MxEncA^FLAG, encapsulin shell protein A of M. xanthus with C-terminal FLAG tag (from UniProt Q1D6H4 1-287)

binding [4]: binds
B1: Myc-tagged encapsulin cargo protein D (MxEncD) (protein, UniProt Q1D9P3 1-109)
chain: MAKNSNPSAFDRDFGYLMPFLDRVAAAASDLEDASARAELTRLMVEEKARWQRIQELLGGAGGRGAAAPTPAREAPAEAPRLARGSADELHEAAPFATGLTVGSLRGSR

binding [4]: binds
B2: Myc-tagged encapsulin cargo protein C (MxEncC) (protein, UniProt Q1D3Y8 1-130)
chain: MPQTNPFHSLVPRKMTDTELARSIRLNIEAELDAINLYAAHIDATDNEDAKAILQHVMDEEREHAALFWELIARLDPEQAAHAKEAVEKYRLITSGASHEAVEAVGKEGAAPSPADVTPEKRLTVGSLRR

binding [4]: binds
B3: Myc-tagged encapsulin cargo protein B (MxEncB) (protein, UniProt Q1D6H3 1-158)
chain: MAGPPDSDLDDVARIRLVLARELETINEYEAYARASSNPEVRAFFQHLAAEEKEHVSEAVHMLRMLDSGQNDHFAKPFVPGHFQAAEAPAPATVHVPTPDGPAFSVNGRNGRLPSEPPTSLPPQRLLYGLPAPPPAVESHPLTVGSLRRGGGGSGSGR

From publication doi:10.1101/222083
